Experimental data published in PubChem BioAssay AID330 (DTP/NCI, 2004).
The list is a part of this screen's results and no random one: it is rich in T/C values a quarter to a half above the control, in often repeated tests (any T/C) and in doses without a T/C. Further doses and runs are listed elsewhere. T/C gives the treated animals as a percentage of the vehicle group. Some entries give survivors of the animals treated and no T/C: the source holds a T/C of zero for them, seemingly a mark for toxic or unscored doses. Some doses without a T/C left all or most animals alive at the check, yet need not have been tolerated: survival well below the control is almost never listed, so the zero probably covers shortened survival too. Counts of survivors are from the toxicity check (mostly the fifth day) where no day follows; animals may have died later. Schedule codes are those of the source, taken here to give the interval after Q, in days (D) or hours (H), and the number of doses after X. Some entries were tested several times; their values stand side by side, smallest first. For survival time, the PubChem record calls one and a half times the control and up active, and a quarter to a half above the control has no call in these data; cut-offs in other NCI protocols can differ. Some T/C values are followed by the survivors on the day toxicity was checked, most often the fifth; where none is given, no animal had died by that day.

Tested on: P388 leukemia ip, CD2F1 mice, survival T/C
Test: NCI In Vivo Anticancer Drug Screen. Data for tumor model P388 Leukemia (intraperitoneal) in CD2F1 (CDF1) mice
Settings: T/C endpoint: median survival time, higher T/C = longer survival
[1] = dose: 200.0 mg/kg/injection, schedule: Q01DX009 (ip), vehicle: saline with Tween-80
[2] = dose: 0.25 mg/kg/injection, schedule: Q01DX009 (ip), vehicle: saline
[3] = dose: 1.0 mg/kg/injection, schedule: Q01DX009 (ip), vehicle: saline
[4] = dose: 100.0 mg/kg/injection, schedule: Q01DX005 (ip), vehicle: saline with Tween-80
[5] = dose: 200.0 mg/kg/injection, schedule: Q01DX005 (ip), vehicle: saline with Tween-80
[6] = dose: 2.0 mg/kg/injection, schedule: Q01DX005 (ip), vehicle: water
[7] = dose: 32.0 mg/kg/injection, schedule: Q01DX005 (ip), vehicle: water
[8] = dose: 400.0 mg/kg/injection, schedule: Q04DX003 (ip), vehicle: saline with Tween-80
[9] = dose: 50.0 mg/kg/injection, schedule: Q01DX009 (ip), vehicle: saline with Tween-80
[10] = dose: 100.0 mg/kg/injection, schedule: Q01DX009 (ip), vehicle: saline with Tween-80
[11] = dose: 400.0 mg/kg/injection, schedule: Q04DX002 (ip), vehicle: Klucel (hydroxypropylcellulose) (HPC)
[12] = dose: 400.0 mg/kg/injection, schedule: Q04DX003 (ip), vehicle: saline

`Clc1ccc(C(Cn2ccnc2)OCc2c(Cl)cccc2Cl)cc1` (centres undefined) was tested, and the survivor count [1] was 4 of 6.
`CCC(C)C(=O)OC1C(=O)OC2CC3C(C)=CC(=O)C(O)C3(C)C3C4(O)OCC23C1C(C)C4O` (centres undefined) was tested, and the T/C [2] was 133 % of control, the T/C (dose: 0.5 mg/kg/injection, schedule: Q01DX009 (ip), vehicle: saline) was 132 % of control and the T/C [3] was 133 % of control.
For `CCN(CC)CCCN(C)Cc1c(-c2ccccc2)oc(-c2ccccc2)c1Cl`, the survivor count [4] was 0 of 5 and the survivor count [5] was 0 of 5.
`NCCSSc1ccccc1[N+](=O)[O-]` was tested, and the survivor count (dose: 100.0 mg/kg/injection, schedule: Q01DX005 (ip), vehicle: Klucel (hydroxypropylcellulose) (HPC)) was 3 of 5 and the survivor count (dose: 200.0 mg/kg/injection, schedule: Q01DX005 (ip), vehicle: Klucel (hydroxypropylcellulose) (HPC)) was 0 of 5.
For `N[C@H](C(=O)O)[C@@H]1CC(Cl)=NO1`, the T/C (dose: 0.06 mg/kg/injection, schedule: Q01DX009 (ip), vehicle: saline) was 126 % of control, the T/C (dose: 0.13 mg/kg/injection, schedule: Q01DX009 (ip), vehicle: saline) was 128 and 132 % of control and the T/C [2] was 126 % of control. The T/C [3] was 134 % of control, the T/C (dose: 1.5 mg/kg/injection, schedule: Q01DX009 (ip), vehicle: saline, evaluated on day 5) was 153 and 171 % of control and the T/C (dose: 1.5 mg/kg/injection, schedule: Q01DX009 (ip), vehicle: saline, evaluated on day 45) was 174 and 177 % of control. The T/C (dose: 2.0 mg/kg/injection, schedule: Q01DX005 (ip), vehicle: saline) was 130 % of control, the T/C [6] was 130 % of control and the survivor count [6] was 5 of 5. For the same compound, the T/C (dose: 2.59 mg/kg/injection, schedule: Q01DX005 (ip), vehicle: saline) was 141 % of control, the T/C (dose: 3.0 mg/kg/injection, schedule: Q01DX005 (ip), vehicle: saline) was 144 % of control and the T/C (dose: 3.12 mg/kg/injection, schedule: Q01DX005 (ip), vehicle: water) was 149 % of control. The T/C (dose: 3.13 mg/kg/injection, schedule: Q04DX003 (ip), vehicle: other) was 126 % of control, the T/C (dose: 4.0 mg/kg/injection, schedule: Q01DX005 (ip), vehicle: saline) was 132 % of control and the T/C (dose: 4.0 mg/kg/injection, schedule: Q01DX005 (ip), vehicle: water) was 143 % of control. The T/C (dose: 6.0 mg/kg/injection, schedule: Q01DX005 (ip), vehicle: saline) was 144 % of control, the T/C (dose: 6.0 mg/kg/injection, schedule: Q01DX005 (iv), vehicle: saline) was 132 % of control and the T/C (dose: 6.25 mg/kg/injection, schedule: Q04DX003 (ip), vehicle: other) was 127 % of control. The survivor count (dose: 8.0 mg/kg/injection, schedule: Q01DX005 (ip), vehicle: water) was 5 of 5, the T/C (dose: 9.0 mg/kg/injection, schedule: Q01DX009 (ip), vehicle: saline) was 146 % of control and the T/C (dose: 10.0 mg/kg/injection, schedule: Q04DX003 (ip), vehicle: saline, evaluated on day 30) was 138 % of control. For the same compound, the T/C (dose: 10.0 mg/kg/injection, schedule: Q04DX003 (ip), vehicle: saline, evaluated on day 45) was 140 and 148 % of control, the T/C (dose: 12.0 mg/kg/injection, schedule: Q01DX005 (ip), vehicle: saline) was 145 % of control and the T/C (dose: 12.5 mg/kg/injection, schedule: Q04DX003 (ip), vehicle: other) was 136 % of control. For the same compound, the survivor count (dose: 15.0 mg/kg/injection, schedule: Q01DX009 (ip), vehicle: saline) was 8 of 8, the T/C (dose: 16.0 mg/kg/injection, schedule: Q01DX005 (iv), vehicle: saline) was 141 % of control and the T/C (dose: 20.0 mg/kg/injection, schedule: Q04DX003 (ip), vehicle: saline, evaluated on day 30) was 138 % of control. For the same compound, the T/C (dose: 20.0 mg/kg/injection, schedule: Q04DX003 (ip), vehicle: saline, evaluated on day 45) was 148 % of control, the T/C (dose: 25.0 mg/kg/injection, schedule: Q04DX003 (ip), vehicle: other) was 145 % of control and the survivor count (dose: 32.0 mg/kg/injection, schedule: Q01DX005 (ip), vehicle: saline) was 6 of 6. The T/C [7] was 142 % of control, the survivor count [7] was 3 of 5 and the survivor count (dose: 32.0 mg/kg/injection, schedule: Q01DX005 (iv), vehicle: saline) was 6 of 6. The survivor count (dose: 32.0 mg/kg/injection, schedule: Q01DX009 (ip), vehicle: water) was 3 of 3 and the T/C (dose: 40.0 mg/kg/injection, schedule: Q04DX003 (ip), vehicle: saline) was 146 % of control.
`Cc1oc2ccccc2c(=O)c1CN1CCN(c2ccccn2)CC1` was tested, and the survivor count (dose: 240.0 mg/kg/injection, schedule: Q01DX005 (ip), vehicle: saline) was 0 of 6.
With `CC1=C(/C=C/C(C)=C/C=C/C(C)=C/CO)C(C)(C)CCC1` the survivor count [8] was 3 of 6.
For `CS(=O)(=O)CCN(N=O)C(=N)N[N+](=O)[O-]`, the survivor count [9] was 6 of 6, the T/C [10] was 136 % of control [5 of 6 alive] and the survivor count [10] was 5 of 6. The T/C (dose: 100.0 mg/kg/injection, schedule: Q04DX003 (ip), vehicle: saline with Tween-80) was 140 and 145 % of control, the survivor count [1] was 1 of 6 and 2 of 6 and the T/C (dose: 200.0 mg/kg/injection, schedule: Q04DX003 (ip), vehicle: saline with Tween-80) was 131 % of control. For the same compound, the survivor count [8] was 1 of 6.
In the case of `C/C(=N\NC(=S)N1CC(C)OC(C)C1)c1cnccn1` (centres undefined), the survivor count [4] is reported as 3 of 6 and the survivor count [5] is reported as 0 of 6.
For `O=C1C=C2CCC3=CC(=O)C(=CC3=O)CCC(=C1)C2=O`, the survivor count [11] was 0 of 5.
For `NC1=NC(=S)C2N=C(N=Nc3ccc(C(=O)NC(CCC(=O)O)C(=O)O)cc3)N=C2N1` (centres undefined), the T/C (dose: 0.75 mg/kg/injection, schedule: Q01DX009 (ip), vehicle: Klucel (hydroxypropylcellulose) (HPC)) was 130 and 138 % of control, the T/C (dose: 1.5 mg/kg/injection, schedule: Q01DX009 (ip), vehicle: Klucel (hydroxypropylcellulose) (HPC)) was 141 and 146 % of control and the T/C (dose: 3.0 mg/kg/injection, schedule: Q01DX009 (ip), vehicle: Klucel (hydroxypropylcellulose) (HPC)) was 145 % of control.
With `CSC(=S)NN=C(c1ccccn1)c1ccccn1` the survivor count [9] was 6 of 6.
`Cc1ccc(S(=O)(=O)C[n+]2ccc3ccccc3c2)cc1` was tested, and the T/C (dose: 200.0 mg/kg/injection, schedule: Q04DX003 (ip), vehicle: saline) was 141 % of control, the T/C [12] was 147 % of control and the survivor count [12] was 4 of 6.
For `CC1CCC2N(C1)CC1C3(O)CC45OC6(O)C(O)CCC4(C)C6CCC5C3(O)CC(O)C1(O)C2(C)O` (centres undefined), the survivor count (dose: 200.0 mg/kg/injection, schedule: Q01DX005 (ip), vehicle: saline) was 2 of 6.
In the case of `C[n+]1cccc(C(=O)OCC(C)(C)N(Cl)Cl)c1`, the survivor count (dose: 100.0 mg/kg/injection, schedule: Q01DX009 (ip), vehicle: saline) is reported as 5 of 6 and the survivor count (dose: 200.0 mg/kg/injection, schedule: Q01DX009 (ip), vehicle: saline) is reported as 0 of 6.
`CCOC(=O)C(Cc1ccc(O)cc1)NCc1ccc(N(CCCl)CCCl)cc1` (centres undefined) was tested, and the T/C [9] was 132 and 138 % of control, the T/C [10] was 146 % of control and the survivor count [1] was 0 of 6.
In the case of `Cl[C](Cl)(Cl)[Hg][c]1ccccc1`, the survivor count (dose: 24.0 mg/kg/injection, schedule: Q01DX009 (ip), vehicle: saline with Tween-80) is reported as 0 of 6.
For `O=C(Cc1ccccc1)c1c[nH]c2c(O)ccc(O)c12`, the survivor count [11] was 0 of 6.
For `O=C(Nc1ccc(Cl)cc1)SC1=NCC(=O)N1c1ccccc1`, the survivor count (dose: 1.56 mg/kg/injection, schedule: Q01DX005 (ip), vehicle: saline with Tween-80) was 5 of 5, the survivor count (dose: 12.5 mg/kg/injection, schedule: Q01DX005 (ip), vehicle: saline with Tween-80) was 6 of 6 and the survivor count (dose: 50.0 mg/kg/injection, schedule: Q01DX005 (ip), vehicle: saline with Tween-80) was 6 of 6.
For `Br/N=C1/C=CC=C/C1=N/Br`, the T/C (dose: 50.0 mg/kg/injection, schedule: Q01DX005 (ip), vehicle: saline) was 125 % of control.
